According to patent US11311637B2, “Positron emitting radionuclide labeled peptides for human uPAR PET imaging” (CURASIGHT A/S, priority 2012, dated 2022):
pIC50: −log10 of the molar value. Part of at least one peptide drawing is inferred or uncertain, most often the ends.

Protein sequences, listed by entry. Tags and fused reporters are not part of them. Residues count along the entry.
UniProt Q03405, 23-305 limits assumed: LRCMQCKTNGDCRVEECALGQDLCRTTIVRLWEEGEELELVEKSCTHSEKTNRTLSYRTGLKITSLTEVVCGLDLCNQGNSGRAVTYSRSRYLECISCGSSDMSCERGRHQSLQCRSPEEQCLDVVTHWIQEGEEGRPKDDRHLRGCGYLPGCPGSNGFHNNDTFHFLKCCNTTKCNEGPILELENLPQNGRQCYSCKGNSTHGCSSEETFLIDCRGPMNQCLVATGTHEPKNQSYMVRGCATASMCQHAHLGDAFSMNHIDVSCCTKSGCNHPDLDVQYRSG

Target: uPAR (Homo sapiens, UniProt Q03405)
Experiment: In vitro competitive inhibition of the uPA:uPAR binding using surface plasmon resonance (uPAR binding affinity)
Conditions: SPR

## CC(C)C[C@H](NC(=O)[C@H](Cc1ccc(O)cc1)NC(=O)C(CCCNC(=N)N)NC(=O)C(CO)NC(=O)[C@H](Cc1ccccc1)NC(=O)[C@H](CC1CCCCC1)NC(=O)C(N)CC(=O)O)C(=O)N[C@@H](Cc1c[nH]c2ccccc12)C(=O)N[C@@H](CO)C(=O)O (stereo partly drawn) [AE105, Asp-Cha-Phe-Ser-Arg-Tyr-Leu-Trp-Ser—OH]
  pIC50: 7.85
